Paper PMC2852906
Results are given in words; binding and its absence hold for the method and conditions named. In cells and extracts the contact can be indirect.

By UniProt entry, the sequences of proteins in these tests, tags left out.
UniProt Q9V6Q2: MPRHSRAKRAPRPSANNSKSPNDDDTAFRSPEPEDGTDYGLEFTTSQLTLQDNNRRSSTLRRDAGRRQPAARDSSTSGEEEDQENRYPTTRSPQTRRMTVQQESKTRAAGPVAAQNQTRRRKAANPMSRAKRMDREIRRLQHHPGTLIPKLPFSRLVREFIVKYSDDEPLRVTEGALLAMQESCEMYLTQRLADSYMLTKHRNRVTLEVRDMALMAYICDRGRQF
UniProt Q7KU24: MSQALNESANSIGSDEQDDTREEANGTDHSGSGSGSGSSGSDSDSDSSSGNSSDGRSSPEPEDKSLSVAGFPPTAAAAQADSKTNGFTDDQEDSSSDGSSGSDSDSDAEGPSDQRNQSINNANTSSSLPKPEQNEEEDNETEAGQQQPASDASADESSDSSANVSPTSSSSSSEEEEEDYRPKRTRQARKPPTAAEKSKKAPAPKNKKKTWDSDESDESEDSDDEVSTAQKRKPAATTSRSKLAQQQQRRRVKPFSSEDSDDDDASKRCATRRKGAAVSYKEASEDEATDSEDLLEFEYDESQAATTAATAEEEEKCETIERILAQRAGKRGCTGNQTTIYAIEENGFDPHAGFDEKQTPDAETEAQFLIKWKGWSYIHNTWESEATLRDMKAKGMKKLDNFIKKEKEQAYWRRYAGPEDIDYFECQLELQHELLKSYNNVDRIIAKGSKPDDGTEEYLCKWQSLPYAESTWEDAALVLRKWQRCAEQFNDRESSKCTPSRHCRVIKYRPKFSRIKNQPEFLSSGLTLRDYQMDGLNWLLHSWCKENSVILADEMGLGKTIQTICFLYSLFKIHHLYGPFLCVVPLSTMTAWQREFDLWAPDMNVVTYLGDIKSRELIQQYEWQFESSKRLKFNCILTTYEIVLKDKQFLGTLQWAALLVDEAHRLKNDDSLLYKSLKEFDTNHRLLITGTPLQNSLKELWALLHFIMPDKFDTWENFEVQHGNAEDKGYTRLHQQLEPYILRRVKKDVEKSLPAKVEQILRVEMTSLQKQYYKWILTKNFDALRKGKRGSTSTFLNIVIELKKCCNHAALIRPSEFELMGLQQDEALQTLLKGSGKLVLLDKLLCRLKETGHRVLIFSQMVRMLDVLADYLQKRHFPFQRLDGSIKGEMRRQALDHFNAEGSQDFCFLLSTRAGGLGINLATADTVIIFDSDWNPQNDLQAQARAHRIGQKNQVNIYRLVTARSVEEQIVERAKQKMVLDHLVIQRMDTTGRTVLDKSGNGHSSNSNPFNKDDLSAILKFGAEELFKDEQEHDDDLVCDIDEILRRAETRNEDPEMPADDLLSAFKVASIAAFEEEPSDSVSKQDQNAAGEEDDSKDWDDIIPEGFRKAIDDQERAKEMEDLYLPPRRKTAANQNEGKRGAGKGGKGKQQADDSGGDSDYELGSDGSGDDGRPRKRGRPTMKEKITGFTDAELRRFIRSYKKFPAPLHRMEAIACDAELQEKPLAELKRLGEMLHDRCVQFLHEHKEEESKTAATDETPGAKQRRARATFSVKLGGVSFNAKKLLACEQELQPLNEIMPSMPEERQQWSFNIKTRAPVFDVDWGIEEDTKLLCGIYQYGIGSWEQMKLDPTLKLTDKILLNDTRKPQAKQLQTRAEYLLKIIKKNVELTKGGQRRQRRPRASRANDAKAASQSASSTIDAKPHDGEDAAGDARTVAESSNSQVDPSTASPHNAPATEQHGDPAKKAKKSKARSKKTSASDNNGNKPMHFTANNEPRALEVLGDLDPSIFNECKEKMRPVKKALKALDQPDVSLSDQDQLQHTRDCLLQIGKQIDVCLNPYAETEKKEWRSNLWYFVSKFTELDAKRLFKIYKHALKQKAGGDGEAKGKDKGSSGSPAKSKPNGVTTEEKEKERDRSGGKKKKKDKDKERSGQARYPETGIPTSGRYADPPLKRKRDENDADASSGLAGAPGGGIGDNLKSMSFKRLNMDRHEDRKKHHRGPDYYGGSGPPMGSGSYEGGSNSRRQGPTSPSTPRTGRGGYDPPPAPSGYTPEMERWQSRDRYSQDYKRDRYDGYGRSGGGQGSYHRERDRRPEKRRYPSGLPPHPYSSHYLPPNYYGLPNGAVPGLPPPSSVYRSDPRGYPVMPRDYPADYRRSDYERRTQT

Key:
[1] = target: EGFP-tagged CenH3^CID (Drosophila) (UniProt Q9V6Q2); test: co-IP; S2 cell chromatin digested with micrococcal nuclease to release mainly mononucleosomes; supernatant in buffer C (15 mM Tris/HCl pH 7.6, 150 mM NaCl, 1 mM EDTA, 1 mM DTT) incubated overnight at 4°C with anti-GFP or anti-CHD1 antibodies on protein A sepharose; immunoblot with anti-CID and anti-CHD1
[2] = target: Drosophila CHD1 (Drosophila (endogenous in S2 cells)) (UniProt Q7KU24); test: as above

| binding [1] | binding [2] | Substance |
| --- | --- | --- |
| no binding | – | Drosophila CHD1 (from UniProt Q7KU24 1-1883) |
| – | no binding | EGFP-tagged CenH3^CID (from UniProt Q9V6Q2 1-225) |
